Measured values from doi:10.1101/2023.08.04.552021.
Results are given in words; binding and its absence hold for the method and conditions named. Binding seen in cells or lysates may run through a third protein. Some binding calls cover weakened binding; strength is not graded here.

Amino acid sequences for entries named in this document (tags omitted). Residues count along the entry.
UniProt P29590: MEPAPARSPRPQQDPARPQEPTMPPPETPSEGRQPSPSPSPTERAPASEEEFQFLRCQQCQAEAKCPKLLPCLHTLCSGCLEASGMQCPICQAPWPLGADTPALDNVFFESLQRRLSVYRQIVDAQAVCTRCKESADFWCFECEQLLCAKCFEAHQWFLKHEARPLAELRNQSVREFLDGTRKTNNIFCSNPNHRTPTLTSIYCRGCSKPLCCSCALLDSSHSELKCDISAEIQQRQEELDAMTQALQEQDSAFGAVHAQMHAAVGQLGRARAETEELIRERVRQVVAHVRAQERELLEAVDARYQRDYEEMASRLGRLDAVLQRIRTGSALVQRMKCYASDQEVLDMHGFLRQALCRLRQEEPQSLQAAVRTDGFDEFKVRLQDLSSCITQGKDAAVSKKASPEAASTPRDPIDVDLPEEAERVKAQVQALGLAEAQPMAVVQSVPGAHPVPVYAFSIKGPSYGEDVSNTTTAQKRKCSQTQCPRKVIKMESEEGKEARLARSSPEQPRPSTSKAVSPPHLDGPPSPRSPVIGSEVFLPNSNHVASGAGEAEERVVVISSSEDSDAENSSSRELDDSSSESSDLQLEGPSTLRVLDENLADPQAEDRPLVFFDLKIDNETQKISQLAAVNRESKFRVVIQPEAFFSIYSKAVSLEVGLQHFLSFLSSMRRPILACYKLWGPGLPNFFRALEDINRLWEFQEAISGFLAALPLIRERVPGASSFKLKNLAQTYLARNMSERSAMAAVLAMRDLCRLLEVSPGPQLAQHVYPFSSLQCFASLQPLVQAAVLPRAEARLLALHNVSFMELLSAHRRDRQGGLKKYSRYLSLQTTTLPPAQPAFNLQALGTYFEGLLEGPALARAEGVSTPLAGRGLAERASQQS
UniProt P19811, residues 1-260: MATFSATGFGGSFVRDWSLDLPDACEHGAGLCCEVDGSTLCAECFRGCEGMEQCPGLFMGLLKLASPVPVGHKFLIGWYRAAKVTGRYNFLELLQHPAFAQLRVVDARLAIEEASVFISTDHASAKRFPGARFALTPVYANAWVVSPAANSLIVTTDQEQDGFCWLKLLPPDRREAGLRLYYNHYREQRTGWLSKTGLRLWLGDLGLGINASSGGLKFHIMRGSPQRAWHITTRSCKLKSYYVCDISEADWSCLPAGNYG

What was measured:
[1] = biological target: promyelocytic leukemia (PML) protein, endogenous (human (endogenous in HeLa)) (UniProt P29590); assay: co-IP
[2] = biological target: GST-nsp1β fusion protein (PRRSV nsp1β) (PRRSV) (UniProt Q9WJB2); assay: pull-down

Molecule | binding [1] | binding [2]
FLAG-nsp1 of equine arteritis virus (EAV) (from UniProt P19811 1-260) | binds | 
promyelocytic leukemia (PML) protein, endogenous (from UniProt P29590 1-882) |  | binds
F-nsp1α of PRRSV (protein, UniProt Q9WJB2 1-180) MSGILDRCTCTPNARVFMAEGQVYCTRCLSARSLLPLNLQVSELGVLGLFYRPEEPLRWTLPRAFPTVECSPAGACWLSAIFPIARMTSGNLNFQQRMVRVAAELYRAGQLTPAVLKALQVYERGCRWYPIVGPVPGVAVFANSLHVSDKPFPGATHVLTNLPLPQRPKPEDFCPFECAM | no binding | 
